Results from article doi:10.1101/2020.01.13.905190.
Results are given in words; binding and its absence hold for the method and conditions named. For some of these results: Binding seen in cells or lysates may run through a third protein. Some entries that bind do so weakly or less than the wild type. One block for each substance: values may come before it.

By UniProt entry, the sequences of proteins in these tests, tags left out. Where a name states a change or a piece, a line headed by the entry shows the natural chain unless it says otherwise. Chains listed by the source or under a name are the forms on record and can include a tag or linker. Residues count along the entry.
UniProt P00451: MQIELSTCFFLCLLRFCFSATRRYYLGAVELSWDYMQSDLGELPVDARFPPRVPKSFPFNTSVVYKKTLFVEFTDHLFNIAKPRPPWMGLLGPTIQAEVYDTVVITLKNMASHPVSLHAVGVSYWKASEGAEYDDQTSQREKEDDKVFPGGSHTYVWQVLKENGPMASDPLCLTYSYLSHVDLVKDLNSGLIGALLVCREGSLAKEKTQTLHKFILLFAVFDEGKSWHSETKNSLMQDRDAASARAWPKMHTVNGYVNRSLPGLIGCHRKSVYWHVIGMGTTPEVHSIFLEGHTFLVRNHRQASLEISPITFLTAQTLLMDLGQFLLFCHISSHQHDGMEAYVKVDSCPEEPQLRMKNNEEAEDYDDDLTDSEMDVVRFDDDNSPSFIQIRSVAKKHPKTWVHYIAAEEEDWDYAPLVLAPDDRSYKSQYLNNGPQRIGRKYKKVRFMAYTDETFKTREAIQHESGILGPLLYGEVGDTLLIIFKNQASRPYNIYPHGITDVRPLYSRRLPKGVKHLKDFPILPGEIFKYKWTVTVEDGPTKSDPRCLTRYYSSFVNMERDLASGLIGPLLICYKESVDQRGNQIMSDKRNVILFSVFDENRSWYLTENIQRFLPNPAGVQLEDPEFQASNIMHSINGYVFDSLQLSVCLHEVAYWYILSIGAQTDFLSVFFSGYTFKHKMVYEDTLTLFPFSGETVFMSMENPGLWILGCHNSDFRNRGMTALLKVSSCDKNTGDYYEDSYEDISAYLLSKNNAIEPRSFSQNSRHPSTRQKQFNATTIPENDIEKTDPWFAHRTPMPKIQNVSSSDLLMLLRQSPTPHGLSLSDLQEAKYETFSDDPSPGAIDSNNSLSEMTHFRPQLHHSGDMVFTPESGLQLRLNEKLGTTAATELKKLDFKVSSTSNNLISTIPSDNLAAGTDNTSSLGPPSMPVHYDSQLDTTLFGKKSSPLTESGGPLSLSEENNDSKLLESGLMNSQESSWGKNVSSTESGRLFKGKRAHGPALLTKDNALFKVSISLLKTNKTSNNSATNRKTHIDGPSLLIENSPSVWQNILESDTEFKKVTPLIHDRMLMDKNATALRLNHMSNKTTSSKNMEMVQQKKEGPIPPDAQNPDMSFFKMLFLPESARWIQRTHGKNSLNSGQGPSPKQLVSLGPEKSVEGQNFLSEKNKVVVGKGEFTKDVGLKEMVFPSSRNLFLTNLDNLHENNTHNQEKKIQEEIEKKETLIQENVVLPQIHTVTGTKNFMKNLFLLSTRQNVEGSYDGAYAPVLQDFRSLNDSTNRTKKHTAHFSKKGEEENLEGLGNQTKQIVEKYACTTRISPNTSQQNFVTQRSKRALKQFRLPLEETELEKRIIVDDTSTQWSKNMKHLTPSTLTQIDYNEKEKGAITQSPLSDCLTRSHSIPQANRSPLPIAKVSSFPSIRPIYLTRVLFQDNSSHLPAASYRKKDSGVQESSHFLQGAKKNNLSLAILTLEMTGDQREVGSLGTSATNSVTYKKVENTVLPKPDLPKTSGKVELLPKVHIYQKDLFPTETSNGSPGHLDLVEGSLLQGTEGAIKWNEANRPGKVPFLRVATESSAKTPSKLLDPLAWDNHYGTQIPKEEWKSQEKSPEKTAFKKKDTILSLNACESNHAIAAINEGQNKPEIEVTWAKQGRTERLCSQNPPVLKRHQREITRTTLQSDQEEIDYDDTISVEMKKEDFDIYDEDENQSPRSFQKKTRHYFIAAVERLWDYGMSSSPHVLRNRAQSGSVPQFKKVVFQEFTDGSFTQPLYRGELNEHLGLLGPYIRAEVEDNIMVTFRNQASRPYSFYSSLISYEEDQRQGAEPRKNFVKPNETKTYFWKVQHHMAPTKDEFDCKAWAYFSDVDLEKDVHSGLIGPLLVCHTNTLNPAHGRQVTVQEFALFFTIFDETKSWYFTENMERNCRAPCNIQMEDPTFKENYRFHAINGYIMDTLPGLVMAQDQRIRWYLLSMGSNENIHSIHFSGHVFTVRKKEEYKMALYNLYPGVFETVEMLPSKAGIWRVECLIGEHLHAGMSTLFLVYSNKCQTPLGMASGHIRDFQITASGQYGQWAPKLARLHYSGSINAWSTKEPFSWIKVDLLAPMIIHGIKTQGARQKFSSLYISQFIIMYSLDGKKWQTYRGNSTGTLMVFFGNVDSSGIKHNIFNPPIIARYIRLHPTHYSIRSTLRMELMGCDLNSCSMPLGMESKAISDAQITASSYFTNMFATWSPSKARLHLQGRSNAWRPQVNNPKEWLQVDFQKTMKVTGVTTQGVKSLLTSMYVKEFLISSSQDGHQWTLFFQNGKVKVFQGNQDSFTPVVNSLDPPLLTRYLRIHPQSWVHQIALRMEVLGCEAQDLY
C310EFVIII-eGFP-CMy (P00451, form named): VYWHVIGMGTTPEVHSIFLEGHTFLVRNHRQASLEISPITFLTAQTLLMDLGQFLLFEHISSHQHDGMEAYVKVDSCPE
F309SFVIII-eGFP-CMy (P00451, form named): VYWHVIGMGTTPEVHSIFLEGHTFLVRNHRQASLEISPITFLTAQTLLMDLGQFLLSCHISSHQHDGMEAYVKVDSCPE
UniProt G3I8R9, residues 19-654: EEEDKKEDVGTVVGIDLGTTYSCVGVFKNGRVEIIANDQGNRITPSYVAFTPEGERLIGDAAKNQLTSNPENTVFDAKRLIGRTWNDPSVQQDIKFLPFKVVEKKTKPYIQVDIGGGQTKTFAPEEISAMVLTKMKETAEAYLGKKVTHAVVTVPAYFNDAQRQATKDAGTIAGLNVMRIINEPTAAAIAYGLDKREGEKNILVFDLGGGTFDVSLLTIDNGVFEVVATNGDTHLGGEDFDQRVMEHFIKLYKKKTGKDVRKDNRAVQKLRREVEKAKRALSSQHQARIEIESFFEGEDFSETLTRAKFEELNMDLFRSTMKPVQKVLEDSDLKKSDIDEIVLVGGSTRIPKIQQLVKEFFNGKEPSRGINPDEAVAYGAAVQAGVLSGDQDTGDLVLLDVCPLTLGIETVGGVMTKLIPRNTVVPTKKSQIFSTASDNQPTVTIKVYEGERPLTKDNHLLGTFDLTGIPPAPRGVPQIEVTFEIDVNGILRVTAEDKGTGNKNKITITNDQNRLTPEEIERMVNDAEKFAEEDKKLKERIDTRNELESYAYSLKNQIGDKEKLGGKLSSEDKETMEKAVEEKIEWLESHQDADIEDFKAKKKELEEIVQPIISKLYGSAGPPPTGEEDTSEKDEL

Experiments:
[1] = molecular target: human FVIII expressed in H9 CHO cells (human) (UniProt P00451); experiment: co-IP
[2] = molecular target: human FVIII expressed in H9 CHO cells (human) (UniProt P00451); experiment: co-IP; remark: listed apart in the source
[3] = molecular target: C310EFVIII-eGFP-CMy (human) (UniProt P00451); experiment: sucrose gradient sedimentation
F309SFVIII-CMy (human) = F309SFVIII-CMy (human) (UniProt P00451); experiment: sucrose gradient sedimentation
[4] = molecular target: F309SFVIII-eGFP-CMy (human) (UniProt P00451); experiment: sucrose gradient sedimentation
[5] = molecular target: human FVIII expressed in H9 CHO cells (human) (UniProt P00451); experiment: sucrose gradient sedimentation with IP and electron microscopy
wtFVIII-eGFP-CMy (human) = wtFVIII-eGFP-CMy (human) (UniProt P00451); experiment: sucrose gradient sedimentation

Substance: BiP/HSPA5 (endogenous in H9 CHO cells) (from UniProt G3I8R9 19-654)
- binding [1]: binds
- binding [2]: binds

Substance: F309SFVIII-eGFP-CMy (from UniProt P00451 272-350) (domain or fragment)
- binding [4]: binds

Substance: human FVIII expressed in H9 CHO cells (from UniProt P00451 20-2351)
- binding [5]: binds

Substance: wtFVIII-eGFP-CMy (from UniProt P00451 272-350) (domain or fragment)
- binding (wtFVIII-eGFP-CMy (human)): binds

Now from value to substance:

- binding [3]: binds
Substance: C310EFVIII-eGFP-CMy (from UniProt P00451 272-350) (domain or fragment)

- binding (F309SFVIII-CMy (human)): binds
Substance: F309SFVIII-CMy (from UniProt P00451 272-350) (domain or fragment)
